This is an account of results in paper doi:10.1101/2021.10.05.463238 (bioRxiv, 2021).

Results are given in words; binding and its absence hold for the method and conditions named. Sequences can lack the tags named with a protein.

Experiment [1] has as its target SPR2(1-500)-GFP (Arabidopsis thaliana) (UniProt Q9T041). The experiment is described as follows: native gel or EMSA.
For experiment [2], the target named is SPR2 (1-400)-GFP (Arabidopsis thaliana) (UniProt Q9T041). As to the kind of experiment: native gel or EMSA. For orientation: A gel shift assay detects complexes by their altered migration in electrophoresis.

B1: SPR2(1-500)-GFP (domain or fragment, UniProt Q9T041 1-500)
chain: MSTPTTSGSAAKPTRPARSSSLATRSCSNSGSLTSFQAMVELKQKILTSISKLADRDTYQIAVEDLEKTIQSLTPETLPMFLNCLYDSCSDPKPAVKKECLHLLSYVCSLHCDSTAAHLTKIIAQIVKRLKDSDSGVRDACRDTIGALSGIYLKGKEEGTNTGSASLAVGLFVKPLFEAMGEQNKVVQSGASMCMARMVESAASPPVTSFQKLCPRICKLLSNSSFLAKASLLPVVSSLSQVGAIAPQSLESLLESIHDCLGSTDWVTRKAAAETLTALASHSSGLIKEKTDSTITVLETCRFDKIKPVRESVTEALQLWKKISGKYVDGASDDSKLSASEQLGSEKNGEKRSNLADLMKKEASDGSTLSPDSASKGKGCFPEKAVGLLKKKAPVLSDKDFNPEFFQRLERRQSVEVVVPRRCKNNDEEESGLDDLNAMGSSNRLKNTQADDKQVKGRFDGNGSQARTSGDDKAGVVNGKETPGHHAPVSNTDNQSEGSF
Regarding B1, in experiment [1], the binding entry was “no binding (tested: 2 μM)”.

B2: SPR2 (1-400)-GFP (domain or fragment, UniProt Q9T041 1-400)
chain: MSTPTTSGSAAKPTRPARSSSLATRSCSNSGSLTSFQAMVELKQKILTSISKLADRDTYQIAVEDLEKTIQSLTPETLPMFLNCLYDSCSDPKPAVKKECLHLLSYVCSLHCDSTAAHLTKIIAQIVKRLKDSDSGVRDACRDTIGALSGIYLKGKEEGTNTGSASLAVGLFVKPLFEAMGEQNKVVQSGASMCMARMVESAASPPVTSFQKLCPRICKLLSNSSFLAKASLLPVVSSLSQVGAIAPQSLESLLESIHDCLGSTDWVTRKAAAETLTALASHSSGLIKEKTDSTITVLETCRFDKIKPVRESVTEALQLWKKISGKYVDGASDDSKLSASEQLGSEKNGEKRSNLADLMKKEASDGSTLSPDSASKGKGCFPEKAVGLLKKKAPVLSDKD
Consider B2, for which the binding entry in experiment [2] is “no binding (tested: 2 μM)”.
